Results deposited as PubChem BioAssay AID602196 (INSERM, 2012).
The deposit covers about 23,000 reagents; this is a random part of them. 455 of all reagents (2%) count as active. 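Active includes both protection and sensitisation; some change values fall well beyond the stated -50 to +50 range.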 Unmarked entries are inactive. Not all columns of the deposit are shown. Not given: the amount of reagent.

- Purpose: 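Modifiers of cisplatin sensitivity in A549 cells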
- Cells: human A549 lung cancer cells
- Knock-down reagent: siRNA pair against human genes
- Duration: 48 h transfection before cisplatin; time from cisplatin to read-out not stated
- Conditions: cisplatin at a dose killing half of control-siRNA cells; exact dose and duration not given
- Detection: 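Shift in cisplatin death relative to control siRNA, from -50 (all cells die) to +50 (no cells die); siRNAs harmful on their own scored 0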
- Direction: two-siRNA summed score (-2 to +2): higher = both siRNAs protect from cisplatin killing; -2 means both sensitise
- Hit rule: 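Each siRNA scores 0 if harmful alone by LDH or WST-1, otherwise +1 if it reduces and -1 if it increases cisplatin killing; a gene is active when both siRNAs agree (sum +2 or -2)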
- Meaning of the calls: active = both siRNAs shift cisplatin killing the same way; inactive = no consistent shift, or siRNA harmful alone

SLC5A7 [SID131511298] scored two-siRNA summed score (-2 to +2) = 0.
CBX5 [SID131516790] scored two-siRNA summed score (-2 to +2) = 0.
Silencing of LOC283801 [SID131516639] came out at: two-siRNA summed score (-2 to +2) = 0.
Silencing of ITPRIPL1 [SID131515892] gave: two-siRNA summed score (-2 to +2) = 0.
With knock-down of TNFRSF9 [SID131512033] the results were two-siRNA summed score (-2 to +2) = 0.
Against SYNRG [SID131513011], the entry reads two-siRNA summed score (-2 to +2) = 0.
Against CBX4 [SID131517244], the entry reads two-siRNA summed score (-2 to +2) = 0.
For TFPI2 [SID131509957], the values are two-siRNA summed score (-2 to +2) = 0.
After knock-down of BPIFA4P [SID131513916] the results were two-siRNA summed score (-2 to +2) = 0.
After knock-down of KCNK18 [SID131510689] the results were two-siRNA summed score (-2 to +2) = 0.
With knock-down of RFXAP [SID131521155], the record shows two-siRNA summed score (-2 to +2) = 1.
Against RABGAP1L [SID131507705] the deposit lists two-siRNA summed score (-2 to +2) = 0.
LOC339692 [SID131516991] scored two-siRNA summed score (-2 to +2) = 0.
For FCRLA [SID131504377], the values are two-siRNA summed score (-2 to +2) = 0.
Against ZNF284 [SID131518310], the values are two-siRNA summed score (-2 to +2) = 0.
For FNIP1 [SID131503424] the deposit lists two-siRNA summed score (-2 to +2) = 0.
Knock-down of LOC400792 [SID131521384] resulted in: two-siRNA summed score (-2 to +2) = 1.
After knock-down of DCAF13 [SID131505655] the results were two-siRNA summed score (-2 to +2) = 0.
Depletion of TNR [SID131507642] came out at: two-siRNA summed score (-2 to +2) = 0.
Against IP6K3 [SID131516955] the deposit lists two-siRNA summed score (-2 to +2) = 0.
For CLEC18A [SID131520438], the entry reads two-siRNA summed score (-2 to +2) = 1.

Entries listed so far whose target name starts with F or f (2):
FCRLA [SID131504377] → two-siRNA summed score (-2 to +2): 0
FNIP1 [SID131503424] → two-siRNA summed score (-2 to +2): 0
